Where two headings read alike, the source gives them in different places. These are yes or no findings as the source states them, for the method shown. Binding seen in cells or lysates may run through a third protein. Some entries that bind do so weakly or less than the wild type. For some assays here: Where a sequence is shown, tags or fusion partners need not be part of it. Values belong to the binder of their own block, whether it stands above or below them.
How the values were obtained:
Test in all cases: co-IP
FLAG-WT-CBX8 [1] = molecular target: T1, FLAG-WT-CBX8 (UniProt Q9HC52)
T1 sequence: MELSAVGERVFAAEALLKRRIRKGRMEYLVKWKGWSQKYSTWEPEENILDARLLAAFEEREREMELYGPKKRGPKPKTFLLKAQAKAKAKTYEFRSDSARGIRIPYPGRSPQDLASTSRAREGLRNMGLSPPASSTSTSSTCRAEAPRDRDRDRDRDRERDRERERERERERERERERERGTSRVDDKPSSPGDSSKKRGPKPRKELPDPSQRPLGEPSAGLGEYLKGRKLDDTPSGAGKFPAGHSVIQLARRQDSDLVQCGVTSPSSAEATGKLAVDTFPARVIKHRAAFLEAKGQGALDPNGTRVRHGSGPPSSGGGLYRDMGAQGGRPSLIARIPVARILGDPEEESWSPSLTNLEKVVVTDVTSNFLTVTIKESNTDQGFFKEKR

FLAG-WT-CBX8 [2] = molecular target: T1, FLAG-WT-CBX8; remark: listed apart in the source
FLAG-WT-CBX8 [3] = molecular target: T1, FLAG-WT-CBX8; remark: listed apart in the source
[4] = molecular target: T2, HA-PKD1 (protein kinase D1) (UniProt Q15139)
T2 sequence: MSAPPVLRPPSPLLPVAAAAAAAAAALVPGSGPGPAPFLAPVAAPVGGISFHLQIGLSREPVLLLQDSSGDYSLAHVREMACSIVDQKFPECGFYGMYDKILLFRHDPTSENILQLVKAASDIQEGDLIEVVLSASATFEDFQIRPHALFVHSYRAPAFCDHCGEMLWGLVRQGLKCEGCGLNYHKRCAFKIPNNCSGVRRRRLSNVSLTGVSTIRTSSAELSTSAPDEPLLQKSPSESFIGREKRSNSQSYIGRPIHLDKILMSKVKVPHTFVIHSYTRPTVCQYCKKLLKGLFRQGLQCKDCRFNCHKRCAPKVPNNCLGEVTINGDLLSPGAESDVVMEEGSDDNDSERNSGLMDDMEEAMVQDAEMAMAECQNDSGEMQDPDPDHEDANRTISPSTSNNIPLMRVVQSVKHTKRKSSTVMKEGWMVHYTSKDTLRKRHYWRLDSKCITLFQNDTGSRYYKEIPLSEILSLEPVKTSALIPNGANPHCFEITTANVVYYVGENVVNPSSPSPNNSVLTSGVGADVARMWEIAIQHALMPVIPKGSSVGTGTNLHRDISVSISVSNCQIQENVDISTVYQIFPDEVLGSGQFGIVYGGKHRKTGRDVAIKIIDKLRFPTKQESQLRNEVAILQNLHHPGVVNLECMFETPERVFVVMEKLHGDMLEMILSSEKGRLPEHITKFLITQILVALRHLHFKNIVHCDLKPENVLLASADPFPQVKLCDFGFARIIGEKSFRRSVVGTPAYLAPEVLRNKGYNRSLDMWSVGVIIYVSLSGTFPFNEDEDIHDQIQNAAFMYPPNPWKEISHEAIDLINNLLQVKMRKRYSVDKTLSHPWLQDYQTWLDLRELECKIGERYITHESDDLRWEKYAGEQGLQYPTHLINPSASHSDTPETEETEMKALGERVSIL

[5] = molecular target: T3, endogenous PKD1 (protein kinase D1) (human (endogenous in HEK293T)) (UniProt Q15139)
T3 sequence: T2 sequence

binding (FLAG-WT-CBX8 [1]): binds | binding (FLAG-WT-CBX8 [2]): binds | binding (FLAG-WT-CBX8 [3]): binds
B1: HA-PKD1 (protein kinase D1) (enzyme, UniProt Q15139 1-912)
chain: T2 sequence

binding [4]: binds
B2: FLAG-WT-CBX8 (protein, UniProt Q9HC52 1-389)
chain: T1 sequence

binding [5]: binds
B3: endogenous CBX8 (chromobox 8) (protein, UniProt Q9HC52 1-389)
chain: T1 sequence

From doi:10.1101/2020.08.09.242891 (bioRxiv, 2020)
